# According to PubChem BioAssay AID2662 (National Center for Advancing Translational Sciences (NCATS), 2010):
# Sequences of proteins named here, by UniProt entry; tags and fusion partners are left off.
# UniProt Q03164, whole entry, looked up: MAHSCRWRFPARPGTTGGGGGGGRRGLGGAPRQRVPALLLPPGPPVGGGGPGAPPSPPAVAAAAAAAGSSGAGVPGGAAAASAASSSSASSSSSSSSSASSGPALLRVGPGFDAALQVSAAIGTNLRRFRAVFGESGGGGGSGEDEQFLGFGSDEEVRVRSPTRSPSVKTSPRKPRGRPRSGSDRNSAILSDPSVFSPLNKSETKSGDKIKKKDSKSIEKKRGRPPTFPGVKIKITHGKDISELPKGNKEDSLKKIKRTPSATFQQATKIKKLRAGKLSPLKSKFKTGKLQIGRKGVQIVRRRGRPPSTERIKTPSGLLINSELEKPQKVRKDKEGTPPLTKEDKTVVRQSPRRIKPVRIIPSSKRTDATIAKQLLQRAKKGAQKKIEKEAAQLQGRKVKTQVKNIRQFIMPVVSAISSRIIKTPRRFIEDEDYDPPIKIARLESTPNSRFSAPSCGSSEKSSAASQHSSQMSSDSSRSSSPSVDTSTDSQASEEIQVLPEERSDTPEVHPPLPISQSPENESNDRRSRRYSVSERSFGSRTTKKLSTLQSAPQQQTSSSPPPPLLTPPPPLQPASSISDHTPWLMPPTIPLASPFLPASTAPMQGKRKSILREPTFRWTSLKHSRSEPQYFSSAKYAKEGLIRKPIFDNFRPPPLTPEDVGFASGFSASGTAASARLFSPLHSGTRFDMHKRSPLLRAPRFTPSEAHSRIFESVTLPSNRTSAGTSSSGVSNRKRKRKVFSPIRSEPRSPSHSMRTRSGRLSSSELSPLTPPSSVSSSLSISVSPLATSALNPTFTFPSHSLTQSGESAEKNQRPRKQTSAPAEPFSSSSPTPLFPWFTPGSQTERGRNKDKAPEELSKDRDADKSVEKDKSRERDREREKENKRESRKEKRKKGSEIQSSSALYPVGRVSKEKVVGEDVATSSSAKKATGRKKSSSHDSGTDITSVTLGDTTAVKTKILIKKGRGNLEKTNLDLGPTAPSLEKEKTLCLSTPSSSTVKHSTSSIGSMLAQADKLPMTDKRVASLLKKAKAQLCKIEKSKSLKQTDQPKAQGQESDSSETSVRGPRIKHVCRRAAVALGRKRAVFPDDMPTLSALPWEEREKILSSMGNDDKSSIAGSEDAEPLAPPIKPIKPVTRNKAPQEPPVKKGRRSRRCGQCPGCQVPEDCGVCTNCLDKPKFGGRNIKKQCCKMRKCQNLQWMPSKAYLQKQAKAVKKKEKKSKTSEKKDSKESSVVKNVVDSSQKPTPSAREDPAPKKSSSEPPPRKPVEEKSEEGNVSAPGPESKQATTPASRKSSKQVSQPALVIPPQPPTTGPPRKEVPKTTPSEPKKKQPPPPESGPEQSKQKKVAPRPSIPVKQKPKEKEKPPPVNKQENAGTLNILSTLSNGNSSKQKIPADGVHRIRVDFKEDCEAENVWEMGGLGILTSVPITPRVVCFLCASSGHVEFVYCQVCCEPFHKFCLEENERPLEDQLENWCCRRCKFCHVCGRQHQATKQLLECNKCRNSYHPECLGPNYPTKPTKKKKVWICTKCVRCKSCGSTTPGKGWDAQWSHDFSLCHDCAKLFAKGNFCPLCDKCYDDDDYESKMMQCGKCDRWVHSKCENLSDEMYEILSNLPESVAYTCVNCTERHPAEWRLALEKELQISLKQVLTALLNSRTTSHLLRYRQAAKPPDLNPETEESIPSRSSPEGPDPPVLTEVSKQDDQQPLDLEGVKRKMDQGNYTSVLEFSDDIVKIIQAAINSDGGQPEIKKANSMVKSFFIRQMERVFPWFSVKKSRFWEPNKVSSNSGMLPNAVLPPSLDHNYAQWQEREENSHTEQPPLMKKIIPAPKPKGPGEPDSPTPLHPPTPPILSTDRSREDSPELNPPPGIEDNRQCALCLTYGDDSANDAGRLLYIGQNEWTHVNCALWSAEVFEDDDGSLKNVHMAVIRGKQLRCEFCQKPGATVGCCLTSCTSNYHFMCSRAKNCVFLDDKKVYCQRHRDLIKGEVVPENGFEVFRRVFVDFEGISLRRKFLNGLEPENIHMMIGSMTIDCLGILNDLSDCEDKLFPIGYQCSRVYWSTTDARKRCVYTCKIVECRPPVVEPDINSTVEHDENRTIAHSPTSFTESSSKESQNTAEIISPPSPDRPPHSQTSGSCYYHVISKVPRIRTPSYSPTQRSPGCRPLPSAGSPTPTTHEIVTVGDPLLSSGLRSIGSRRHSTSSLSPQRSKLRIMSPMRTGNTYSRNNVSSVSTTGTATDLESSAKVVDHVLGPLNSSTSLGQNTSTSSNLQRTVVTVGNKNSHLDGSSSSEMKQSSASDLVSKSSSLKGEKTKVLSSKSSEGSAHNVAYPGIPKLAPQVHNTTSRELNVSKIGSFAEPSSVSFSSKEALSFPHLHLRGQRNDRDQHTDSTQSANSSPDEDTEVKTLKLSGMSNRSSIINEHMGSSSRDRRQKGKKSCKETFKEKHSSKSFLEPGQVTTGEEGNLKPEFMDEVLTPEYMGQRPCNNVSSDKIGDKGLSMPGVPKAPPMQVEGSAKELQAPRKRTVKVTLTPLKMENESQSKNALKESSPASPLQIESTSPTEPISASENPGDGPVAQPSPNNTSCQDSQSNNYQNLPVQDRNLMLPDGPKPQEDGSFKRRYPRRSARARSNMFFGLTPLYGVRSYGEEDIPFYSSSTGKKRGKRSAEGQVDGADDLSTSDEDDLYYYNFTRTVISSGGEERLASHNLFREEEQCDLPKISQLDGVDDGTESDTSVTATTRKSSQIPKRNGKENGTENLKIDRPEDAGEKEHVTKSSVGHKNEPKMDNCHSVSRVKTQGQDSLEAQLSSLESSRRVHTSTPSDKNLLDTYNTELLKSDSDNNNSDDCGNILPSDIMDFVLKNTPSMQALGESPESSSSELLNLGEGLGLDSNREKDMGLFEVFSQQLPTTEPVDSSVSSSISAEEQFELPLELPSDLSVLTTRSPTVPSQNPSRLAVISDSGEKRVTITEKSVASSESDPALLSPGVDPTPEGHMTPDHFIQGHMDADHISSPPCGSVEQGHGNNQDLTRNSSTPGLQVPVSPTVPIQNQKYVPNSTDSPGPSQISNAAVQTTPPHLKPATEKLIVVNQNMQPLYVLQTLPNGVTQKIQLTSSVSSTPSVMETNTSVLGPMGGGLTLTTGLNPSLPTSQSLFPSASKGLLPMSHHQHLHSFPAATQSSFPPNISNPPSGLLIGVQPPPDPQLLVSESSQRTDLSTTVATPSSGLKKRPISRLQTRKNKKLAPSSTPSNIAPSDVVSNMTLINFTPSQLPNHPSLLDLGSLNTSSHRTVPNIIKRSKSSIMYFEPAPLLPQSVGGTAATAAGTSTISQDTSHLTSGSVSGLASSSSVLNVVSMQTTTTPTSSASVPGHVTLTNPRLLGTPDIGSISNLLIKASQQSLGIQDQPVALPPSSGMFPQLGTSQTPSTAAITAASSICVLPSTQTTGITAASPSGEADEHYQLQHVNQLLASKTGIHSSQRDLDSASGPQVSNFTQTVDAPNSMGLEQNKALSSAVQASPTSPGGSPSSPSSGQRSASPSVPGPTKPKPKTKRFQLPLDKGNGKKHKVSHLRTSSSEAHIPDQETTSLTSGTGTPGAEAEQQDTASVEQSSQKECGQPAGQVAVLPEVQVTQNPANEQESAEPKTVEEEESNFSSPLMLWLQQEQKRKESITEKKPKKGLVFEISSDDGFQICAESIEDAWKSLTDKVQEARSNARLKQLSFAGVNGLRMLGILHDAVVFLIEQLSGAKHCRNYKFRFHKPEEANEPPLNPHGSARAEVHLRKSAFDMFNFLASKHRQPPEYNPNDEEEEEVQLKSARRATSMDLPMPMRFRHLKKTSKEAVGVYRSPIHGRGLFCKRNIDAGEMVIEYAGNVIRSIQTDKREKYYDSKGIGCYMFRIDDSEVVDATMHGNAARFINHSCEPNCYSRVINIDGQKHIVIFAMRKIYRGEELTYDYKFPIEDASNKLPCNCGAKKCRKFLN
# About 110 (0.038%) of roughly 290,000 compounds were called active. Inconclusive means that the source gave no clear call. Such entries were picked first, then a sample of the others. Calls follow the shape of the dose curve; as a rule, active = well fitted inhibition curve with a large enough effect in the polarisation, with a control signal flat (not every such curve was filed as active); inconclusive = small, poorly fitted or top-dose-only effect, or effect the other way, or a change in a side signal; inactive = no such curve, though single readings can be large or run the other way; the % refers to the polarisation. Potencies of inconclusive entries are doubtful fits and often do not repeat. A note “side channel” means that the fit belongs to a control or component signal, not to the main read-out.
# Target: Histone-lysine N-methyltransferase 2A (Homo sapiens) (UniProt Q03164)
# Assay: qHTS Fluorescence Polarization Assay for Inhibitors of MLL CXXC domain - DNA interaction
# Conditions: MLL-CXXC / FITC-HOXA9 DNA fluorescence polarization; series mostly up to 115 µM
# In short: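 Purified MLL-CXXC (added from a 7 uM solution) was preincubated 5 min at ambient with pinned compounds in 50 mM Tris-HCl pH 7.5, 50 mM NaCl, 1 mM DTT, 0.05% BSA. Fluorescein-labeled HOX-A9 DNA (50 nM solution) followed, 30 min, then polarization read.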
# Potency is read from the fitted curve at half-maximal effect.
row,SMILES,Potency
1,O=C(CSc1nc2ccccc2s1)c1ccc(O)cc1O,"inconclusive: 89.1 µM [inhibitor, single point]"
2,CCC(C)[C@H]1CNC(=O)C(=O)N1CCCc1cc(OC)c(OC)c(OC)c1 (stereo partly specified),"inconclusive: 35.5 µM [inhibitor, single point]"
3,CCn1nnnc1NCc1ccc(OCc2c(F)cccc2Cl)c(OC)c1,"inconclusive: 31.6 µM [inhibitor, single point]"
4,Cc1nnsc1C(=O)NC1CCCc2c1cnn2-c1cc(F)cc(F)c1 (stereo unspecified),"inconclusive: 10 µM [fluorescent, side channel, partial curve]"
5,O=[N+]([O-])c1ccccc1COc1ccc(Cl)c2cccnc12,"inconclusive: 56.2 µM [fluorescent, side channel, single point]"
6,CCCCN(C)S(=O)(=O)c1ccc(C(=O)Nc2nnc(-c3cccs3)o2)cc1,"inconclusive: 63.1 µM [inhibitor, single point]"
7,CC(=O)Nc1ccc(N2CCN(C(=O)c3cccs3)CC2)cc1,"inconclusive: 70.8 µM [inhibitor, single point]"
8,CC(=O)c1ccc(NC(=O)/C(Cl)=C/c2ccccc2)cc1,"inconclusive: 35.5 µM [fluorescent, side channel, single point]"
9,O=c1oc(/C=C/c2ccccc2)nc2sc3c(c12)CCC3,"inconclusive: 79.4 µM [fluorescent, side channel, single point]"
10,Cn1ccnc1SCC(=O)c1ccc2ccccc2c1,"inconclusive: 2.82 µM [quencher, side channel, full curve]"
11,CC(C)C[C@H](NC(=O)c1[nH]cnc1C(=O)Nc1ccc(Cl)cc1)C(=O)OC(C)(C)C,"inconclusive: 63.1 µM [inhibitor, single point]"
12,O=C(N1CCOCC1)N1CCN(c2ccccc2F)CC1,inactive
13,CCOC(=O)N1CCN(Cc2nc3cc(NC(C)=O)ccc3n2CC)CC1,"inconclusive: 70.8 µM [fluorescent, side channel, single point]"
14,COCCN1CCN(C(=O)C2CCC(=O)N(Cc3ccc(Cl)cc3)C2)CC1 (stereo unspecified),"inconclusive: 1.41 µM [fluorescent, side channel, full curve, poor fit]"
15,O=C(NCCNC(=O)c1ccccn1)c1ccccc1,"inconclusive: 12.6 µM [fluorescent, side channel, partial curve]"
16,CCCCCCCCCCCCCCCCn1cc[n+](CC(C)=O)c1,"inconclusive: 25.1 µM [quencher, side channel, partial curve]"

# Single values from above:
# CCn1nnnc1NCc1ccc(OCc2c(F)cccc2Cl)c(OC)c1 | Potency: inconclusive: 31.6 µM [inhibitor, single point]
# Cc1nnsc1C(=O)NC1CCCc2c1cnn2-c1cc(F)cc(F)c1 (stereo unspecified) | Potency: inconclusive: 10 µM [fluorescent, side channel, partial curve]
